This is one part of the list.
Tests used:
Test in all cases: log2 fold change, soluble protein after heating vs DMSO (PISA); higher = thermal stabilisation; K562 lysate, 10 uM; active = over 0.2 and 3.5 SD of the protein, either way, in both replicates (recomputed)
[1] = compound: C#Cc1cccc(Nc2ncnc3cc(OCCOC)c(OCCOC)cc23)c1 [erlotinib]
Summary of the method: (§1)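 The values are log-two fold changes in thermal stability compared with solvent controls and come from duplicates. They were obtained by TMTpro 16plex LC-MS/MS, with channel sums equalised, on the supernatant after 21,000xg for 90 min. That supernatant came from crude K562 extract at 1 mg/mL protein treated with 10 μM compound for 30 min, heated for 3 min across 48°C-58°C, pooled and brought to 0.5% NP-40 at 4°C.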

The chains behind the UniProt entries cited, without tags or fusion partners. Where a name states a change or a piece, a line headed by the entry shows the natural chain unless it says otherwise.
UniProt Q86UP2: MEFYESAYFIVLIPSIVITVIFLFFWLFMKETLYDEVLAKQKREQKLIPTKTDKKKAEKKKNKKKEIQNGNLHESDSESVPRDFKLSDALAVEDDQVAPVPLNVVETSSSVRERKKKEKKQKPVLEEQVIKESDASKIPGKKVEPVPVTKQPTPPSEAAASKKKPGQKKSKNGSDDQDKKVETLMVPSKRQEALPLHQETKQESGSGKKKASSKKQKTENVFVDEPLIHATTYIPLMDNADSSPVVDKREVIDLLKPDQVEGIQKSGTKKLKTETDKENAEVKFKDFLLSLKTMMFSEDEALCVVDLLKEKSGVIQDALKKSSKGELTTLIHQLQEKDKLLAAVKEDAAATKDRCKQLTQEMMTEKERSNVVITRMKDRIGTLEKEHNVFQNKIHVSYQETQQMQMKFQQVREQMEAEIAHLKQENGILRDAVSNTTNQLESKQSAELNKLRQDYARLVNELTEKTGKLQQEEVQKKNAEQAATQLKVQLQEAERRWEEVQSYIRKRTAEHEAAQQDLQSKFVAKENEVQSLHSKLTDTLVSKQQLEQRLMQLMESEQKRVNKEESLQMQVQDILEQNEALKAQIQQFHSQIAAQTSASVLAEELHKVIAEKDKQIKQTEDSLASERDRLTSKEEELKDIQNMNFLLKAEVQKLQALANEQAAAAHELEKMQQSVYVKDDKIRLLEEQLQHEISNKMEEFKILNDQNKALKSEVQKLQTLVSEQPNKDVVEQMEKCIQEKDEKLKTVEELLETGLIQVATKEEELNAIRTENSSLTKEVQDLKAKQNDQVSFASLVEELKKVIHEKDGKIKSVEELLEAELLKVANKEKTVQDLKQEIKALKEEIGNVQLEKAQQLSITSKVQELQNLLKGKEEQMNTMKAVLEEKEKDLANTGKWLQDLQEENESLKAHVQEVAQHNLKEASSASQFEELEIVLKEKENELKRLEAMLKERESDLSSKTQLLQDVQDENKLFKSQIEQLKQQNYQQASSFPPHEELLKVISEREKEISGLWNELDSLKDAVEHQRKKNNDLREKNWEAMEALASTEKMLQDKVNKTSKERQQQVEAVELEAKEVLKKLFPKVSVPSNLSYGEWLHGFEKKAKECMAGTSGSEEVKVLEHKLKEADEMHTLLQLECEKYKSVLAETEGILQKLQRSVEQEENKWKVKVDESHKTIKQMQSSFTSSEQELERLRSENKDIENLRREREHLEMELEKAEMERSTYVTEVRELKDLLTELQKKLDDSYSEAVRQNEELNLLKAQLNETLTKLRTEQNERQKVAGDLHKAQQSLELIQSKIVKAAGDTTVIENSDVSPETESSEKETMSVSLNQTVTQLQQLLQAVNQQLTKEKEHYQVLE
UniProt Q16773: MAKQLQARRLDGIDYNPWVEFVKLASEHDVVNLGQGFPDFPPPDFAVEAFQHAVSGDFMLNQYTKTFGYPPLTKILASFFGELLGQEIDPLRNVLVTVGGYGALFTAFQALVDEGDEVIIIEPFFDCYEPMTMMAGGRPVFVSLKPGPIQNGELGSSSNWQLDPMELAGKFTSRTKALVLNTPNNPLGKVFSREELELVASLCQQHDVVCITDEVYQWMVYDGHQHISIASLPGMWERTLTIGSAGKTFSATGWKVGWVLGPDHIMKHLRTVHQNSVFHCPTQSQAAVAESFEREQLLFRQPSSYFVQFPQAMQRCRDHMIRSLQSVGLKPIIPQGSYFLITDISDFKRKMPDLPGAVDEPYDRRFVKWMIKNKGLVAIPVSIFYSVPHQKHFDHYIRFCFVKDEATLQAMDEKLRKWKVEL
UniProt Q9BQ90: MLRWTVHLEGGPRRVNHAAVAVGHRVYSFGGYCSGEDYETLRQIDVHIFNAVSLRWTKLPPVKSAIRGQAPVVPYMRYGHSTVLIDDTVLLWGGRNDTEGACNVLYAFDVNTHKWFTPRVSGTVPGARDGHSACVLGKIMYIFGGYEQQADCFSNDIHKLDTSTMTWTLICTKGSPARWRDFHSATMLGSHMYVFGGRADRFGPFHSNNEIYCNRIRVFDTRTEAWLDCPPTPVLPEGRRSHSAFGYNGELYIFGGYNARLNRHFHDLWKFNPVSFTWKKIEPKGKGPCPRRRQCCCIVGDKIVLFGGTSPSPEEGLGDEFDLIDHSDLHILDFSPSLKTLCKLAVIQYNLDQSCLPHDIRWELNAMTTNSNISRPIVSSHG
UniProt P33176: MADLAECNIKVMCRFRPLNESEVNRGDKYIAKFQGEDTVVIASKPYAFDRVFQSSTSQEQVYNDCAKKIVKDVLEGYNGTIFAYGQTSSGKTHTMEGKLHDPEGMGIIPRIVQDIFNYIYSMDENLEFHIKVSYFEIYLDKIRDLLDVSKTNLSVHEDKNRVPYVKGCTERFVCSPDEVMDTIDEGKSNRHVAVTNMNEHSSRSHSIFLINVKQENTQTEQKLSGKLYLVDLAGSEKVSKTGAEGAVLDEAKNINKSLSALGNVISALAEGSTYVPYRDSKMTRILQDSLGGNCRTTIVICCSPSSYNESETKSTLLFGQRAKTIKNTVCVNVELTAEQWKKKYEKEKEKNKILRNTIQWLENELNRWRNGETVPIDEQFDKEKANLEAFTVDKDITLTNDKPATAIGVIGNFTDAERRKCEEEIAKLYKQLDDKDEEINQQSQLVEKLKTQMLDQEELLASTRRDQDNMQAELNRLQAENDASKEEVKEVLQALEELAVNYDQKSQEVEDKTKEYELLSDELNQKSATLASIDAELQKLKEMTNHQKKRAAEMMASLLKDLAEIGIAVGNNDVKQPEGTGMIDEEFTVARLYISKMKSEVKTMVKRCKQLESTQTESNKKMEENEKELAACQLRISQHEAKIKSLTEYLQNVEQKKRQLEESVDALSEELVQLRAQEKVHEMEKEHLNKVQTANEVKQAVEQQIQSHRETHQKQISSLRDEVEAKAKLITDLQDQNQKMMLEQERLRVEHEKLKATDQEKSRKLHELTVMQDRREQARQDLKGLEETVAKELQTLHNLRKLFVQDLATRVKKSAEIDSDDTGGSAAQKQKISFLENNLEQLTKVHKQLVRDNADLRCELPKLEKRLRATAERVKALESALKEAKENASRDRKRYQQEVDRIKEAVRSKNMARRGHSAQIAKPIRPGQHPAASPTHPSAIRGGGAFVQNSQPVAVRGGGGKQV
UniProt Q8IVT5: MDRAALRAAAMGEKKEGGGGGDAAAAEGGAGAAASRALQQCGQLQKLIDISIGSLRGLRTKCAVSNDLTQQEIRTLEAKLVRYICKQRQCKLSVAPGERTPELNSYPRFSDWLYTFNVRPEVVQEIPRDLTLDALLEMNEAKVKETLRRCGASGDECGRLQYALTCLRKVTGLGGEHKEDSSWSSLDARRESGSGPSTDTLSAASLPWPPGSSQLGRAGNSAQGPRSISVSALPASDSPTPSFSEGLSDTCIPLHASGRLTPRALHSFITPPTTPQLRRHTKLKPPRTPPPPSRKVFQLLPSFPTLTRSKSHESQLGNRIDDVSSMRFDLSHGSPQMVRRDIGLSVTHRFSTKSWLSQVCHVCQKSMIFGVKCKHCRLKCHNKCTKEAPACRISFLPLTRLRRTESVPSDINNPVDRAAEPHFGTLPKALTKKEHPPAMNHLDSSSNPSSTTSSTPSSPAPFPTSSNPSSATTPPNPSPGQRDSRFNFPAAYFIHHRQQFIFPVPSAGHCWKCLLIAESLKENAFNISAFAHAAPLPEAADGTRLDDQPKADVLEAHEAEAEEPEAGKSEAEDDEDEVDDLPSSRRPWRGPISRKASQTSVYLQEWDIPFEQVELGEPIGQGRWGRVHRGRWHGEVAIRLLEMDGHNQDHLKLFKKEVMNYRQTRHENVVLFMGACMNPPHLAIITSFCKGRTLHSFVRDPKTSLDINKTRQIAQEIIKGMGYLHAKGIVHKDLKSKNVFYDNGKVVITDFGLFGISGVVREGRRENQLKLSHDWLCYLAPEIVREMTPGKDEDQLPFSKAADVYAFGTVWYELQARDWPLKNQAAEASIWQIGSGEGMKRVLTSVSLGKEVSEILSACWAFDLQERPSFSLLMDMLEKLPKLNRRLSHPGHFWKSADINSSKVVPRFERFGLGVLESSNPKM
UniProt Q9ULH0: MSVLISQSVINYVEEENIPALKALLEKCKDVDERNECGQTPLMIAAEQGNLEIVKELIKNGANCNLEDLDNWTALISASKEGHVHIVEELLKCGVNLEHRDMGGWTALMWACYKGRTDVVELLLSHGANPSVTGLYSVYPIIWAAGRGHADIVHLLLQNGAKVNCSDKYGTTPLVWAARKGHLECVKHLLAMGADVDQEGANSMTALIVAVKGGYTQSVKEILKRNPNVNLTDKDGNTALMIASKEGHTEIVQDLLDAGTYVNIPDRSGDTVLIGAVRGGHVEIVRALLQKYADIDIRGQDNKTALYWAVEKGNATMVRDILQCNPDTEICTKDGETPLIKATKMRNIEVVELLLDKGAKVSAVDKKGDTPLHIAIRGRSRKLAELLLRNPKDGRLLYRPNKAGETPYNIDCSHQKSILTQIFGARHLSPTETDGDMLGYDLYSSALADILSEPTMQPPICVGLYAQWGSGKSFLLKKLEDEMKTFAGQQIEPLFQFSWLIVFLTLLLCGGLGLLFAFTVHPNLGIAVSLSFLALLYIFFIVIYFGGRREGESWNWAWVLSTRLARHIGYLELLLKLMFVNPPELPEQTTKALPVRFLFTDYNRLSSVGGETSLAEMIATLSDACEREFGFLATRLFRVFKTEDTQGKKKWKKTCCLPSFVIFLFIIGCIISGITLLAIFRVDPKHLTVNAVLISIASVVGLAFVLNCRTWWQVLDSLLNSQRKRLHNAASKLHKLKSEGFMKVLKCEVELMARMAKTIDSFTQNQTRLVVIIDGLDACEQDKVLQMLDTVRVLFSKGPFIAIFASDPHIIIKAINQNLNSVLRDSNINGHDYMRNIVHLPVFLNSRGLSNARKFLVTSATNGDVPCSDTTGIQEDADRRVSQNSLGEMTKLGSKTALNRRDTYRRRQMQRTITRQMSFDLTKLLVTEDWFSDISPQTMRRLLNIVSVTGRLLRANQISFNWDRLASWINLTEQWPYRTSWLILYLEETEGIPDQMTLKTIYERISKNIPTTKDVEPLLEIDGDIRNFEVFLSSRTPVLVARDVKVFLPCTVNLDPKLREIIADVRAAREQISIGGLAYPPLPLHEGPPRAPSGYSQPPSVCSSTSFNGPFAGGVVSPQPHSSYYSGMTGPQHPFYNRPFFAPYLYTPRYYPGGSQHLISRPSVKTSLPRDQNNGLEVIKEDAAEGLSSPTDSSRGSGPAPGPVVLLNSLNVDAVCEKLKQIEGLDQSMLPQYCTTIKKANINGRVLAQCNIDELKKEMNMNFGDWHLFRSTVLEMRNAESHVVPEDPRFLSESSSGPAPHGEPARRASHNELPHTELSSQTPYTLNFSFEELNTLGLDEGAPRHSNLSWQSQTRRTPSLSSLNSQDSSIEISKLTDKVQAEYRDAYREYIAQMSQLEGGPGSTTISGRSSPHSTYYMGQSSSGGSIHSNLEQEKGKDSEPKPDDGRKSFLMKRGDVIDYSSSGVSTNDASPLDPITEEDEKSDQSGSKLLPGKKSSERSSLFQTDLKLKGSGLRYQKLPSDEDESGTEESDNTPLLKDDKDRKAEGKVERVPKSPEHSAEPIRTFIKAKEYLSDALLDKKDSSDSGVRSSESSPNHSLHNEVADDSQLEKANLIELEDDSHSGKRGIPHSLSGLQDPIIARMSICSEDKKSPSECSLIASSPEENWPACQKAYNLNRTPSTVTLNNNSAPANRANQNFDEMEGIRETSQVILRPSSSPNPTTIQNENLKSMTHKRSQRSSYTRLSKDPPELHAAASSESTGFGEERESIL
UniProt Q92945: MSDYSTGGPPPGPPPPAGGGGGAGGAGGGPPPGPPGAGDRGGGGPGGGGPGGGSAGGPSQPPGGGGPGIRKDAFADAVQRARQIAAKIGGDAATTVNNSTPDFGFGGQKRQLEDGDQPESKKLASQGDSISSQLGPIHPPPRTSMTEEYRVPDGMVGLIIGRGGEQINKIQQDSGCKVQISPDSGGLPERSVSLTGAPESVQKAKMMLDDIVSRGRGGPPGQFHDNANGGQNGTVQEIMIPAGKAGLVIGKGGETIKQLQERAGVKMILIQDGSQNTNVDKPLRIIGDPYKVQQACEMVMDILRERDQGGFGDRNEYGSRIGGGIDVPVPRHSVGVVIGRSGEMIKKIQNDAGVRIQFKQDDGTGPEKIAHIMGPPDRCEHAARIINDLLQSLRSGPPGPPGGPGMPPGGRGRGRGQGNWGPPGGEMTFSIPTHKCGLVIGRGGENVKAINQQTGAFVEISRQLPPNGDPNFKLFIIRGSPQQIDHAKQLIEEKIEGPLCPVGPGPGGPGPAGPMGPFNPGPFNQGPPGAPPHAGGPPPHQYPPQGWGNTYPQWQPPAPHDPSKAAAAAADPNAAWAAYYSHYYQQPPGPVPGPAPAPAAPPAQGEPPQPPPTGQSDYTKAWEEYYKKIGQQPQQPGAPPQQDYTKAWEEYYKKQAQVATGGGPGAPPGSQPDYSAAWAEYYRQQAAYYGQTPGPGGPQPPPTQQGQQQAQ

[2] = compound: C/C(=N\NC(=O)C1=CC(=CC=C1)S(=O)(=O)N2CCOCC2)/C3=C(C=CC(=C3)Cl)O
Summary of the method: as §1

[3] = compound: C1=CC(=CC=C1C2=NC3=C(N2)C=C(C=C3)C(=O)N)OC4=CC=C(C=C4)Cl
Summary of the method: as §1

[4] = compound: C1=CC2=C(C=CC(=C2)/C=C\3/C(=O)NC(=NCC4=CC=CS4)S3)N=C1
Summary of the method: as §1

[5] = compound: C1=CC2=NC=CN=C2C=C1/C=C/3\C(=O)NC(=O)S3
Summary of the method: as §1

[6] = compound: C1=CC=C(C=C1)C2=NC(=C(N2)C3=CC=NC=C3)C4=CC(=C(C=C4)Cl)O
Summary of the method: as §1

[7] = compound: C1=CC=C2C(=C1)C3=NNC4=CC=CC(=C43)C2=O
Summary of the method: as §1

[8] = compound: C1CCN(C1)C(=O)NC2=CC=CC(=C2)NC3=NC=C(C(=N3)NCCC4=CN=CN4)Br
Summary of the method: as §1

[9] = compound: C1CN(CCC1(CC2=CC=C(C=C2)Cl)N)C3=NC=NC4=C3C=CN4
Summary of the method: as §1

[10] = compound: C1COCCN1CCN2C3=CC=CC=C3N=C2NC(=O)C4=CC(=CC=C4)[N+](=O)[O-] [IRAK-1-4 Inhibitor I]
Summary of the method: as §1

[11] = compound: C=CC(=O)N1CCC[C@@H](n2nc(-c3ccc(Oc4ccccc4)cc3)c3c(N)ncnc32)C1 [ibrutinib]
Summary of the method: as §1

[12] = compound: CC(=O)c1cnc2ccc(-c3cc(Cl)c(O)c(Cl)c3)nc2c1N[C@H]1CC[C@H](CN(C)C)CC1
Summary of the method: as §1

[13] = compound: CC(C)(C)Cn1c(N)nc2ccc(-c3[nH]c(C(C)(C)C)nc3-c3ccc(F)cc3)nc21 [ralimetinib]
Summary of the method: as §1

[14] = compound: CC(C)(O)CC(=O)NCCn1ccc2ncnc(Nc3ccc(Oc4cccc(C(F)(F)F)c4)c(Cl)c3)c21
Summary of the method: as §1

[15] = compound: CC(C)C1=C2N=C(C=C(N2N=C1)NCC3=CC=CC=C3)NCCCCCCN
Summary of the method: as §1

[16] = compound: CC1=C(C(CC(=O)N1)C2=CC=C(C=C2)C(F)(F)F)C(=O)NC3=C(C=C4C(=C3)C=NN4)F
Summary of the method: as §1

[17] = compound: CC1=C(C2=C(C=C1)C(=O)C3=CC=CC=C3N2CCCN)C
Summary of the method: as §1

[18] = compound: CC1=C(C=C(C=C1)NC(=O)C2=CC(=CC=C2)C(C)(C)C#N)NC3=CC4=C(C=C3)N=CN(C4=O)C
Summary of the method: as §1

[19] = compound: CC1=C(C=C(C=C1)NC(=O)C2=CC(=CC=C2)N(C)C)NC(=O)C3=CC=C(C=C3)O
Summary of the method: as §1

[20] = compound: CC1=CC=C(C=C1)SC2=C3C=C(SC3=CN=C2)C(=O)N
Summary of the method: as §1

Measured: log2 fold change

KMT2A isoform 3 (UniProt Q03164)
inactive: [1] -0.022 | [2] 0.351 | [3] 0.041 | [4] -0.047 | [5] -0.014 | [6] -0.069 | [7] -0.004 | [8] 0.005 | [9] -0.06 | [10] 0.07 | [11] -0.054 | [12] 0.005 | [13] -0.008 | [14] -0.117 | [15] 0.019 | [16] -0.114 | [17] -0.047 | [18] -0.046 | [19] 0.025 | [20] 0

LACTB (UniProt P83111)
inactive: [1] -0.02 | [2] -0.05 | [3] -0.028 | [4] 0.028 | [5] -0.027 | [6] 0.059 | [7] 0.006 | [8] 0.014 | [9] -0.033 | [10] -0.11 | [11] 0.007 | [12] 0.014 | [13] -0.011 | [14] 0.025 | [15] -0.009 | [16] -0.026 | [17] -0.008 | [18] 0.002 | [19] 0.09 | [20] 0.022

KPNA4 (UniProt O00629)
inactive: [1] -0.015 | [2] -0.037 | [3] 0.046 | [4] 0.022 | [5] -0.014 | [6] -0.013 | [7] -0.007 | [8] -0.045 | [9] -0.012 | [10] 0.038 | [11] -0.037 | [12] -0.047 | [13] -0.024 | [14] 0.002 | [15] 0.019 | [16] 0.003 | [17] 0.019 | [18] 0.019 | [19] 0 | [20] -0.018

Two successive entries already listed, for reference:
LACTB (UniProt P83111)
inactive: [1] -0.02 | [2] -0.05 | [3] -0.028 | [4] 0.028 | [5] -0.027 | [6] 0.059 | [7] 0.006 | [8] 0.014 | [9] -0.033 | [10] -0.11 | [11] 0.007 | [12] 0.014 | [13] -0.011 | [14] 0.025 | [15] -0.009 | [16] -0.026 | [17] -0.008 | [18] 0.002 | [19] 0.09 | [20] 0.022

KPNA4 (UniProt O00629)
inactive: [1] -0.015 | [2] -0.037 | [3] 0.046 | [4] 0.022 | [5] -0.014 | [6] -0.013 | [7] -0.007 | [8] -0.045 | [9] -0.012 | [10] 0.038 | [11] -0.037 | [12] -0.047 | [13] -0.024 | [14] 0.002 | [15] 0.019 | [16] 0.003 | [17] 0.019 | [18] 0.019 | [19] 0 | [20] -0.018

(continued)

KTN1 (UniProt Q86UP2)
inactive: [1] -0.006 | [2] 0.023 | [3] -0.002 | [4] -0.017 | [5] -0.02 | [6] -0.009 | [7] -0.087 | [8] -0.006 | [9] 0.003 | [10] 0.01 | [11] 0.017 | [12] -0.004 | [13] -0.009 | [14] -0.055 | [15] -0.001 | [16] 0.033 | [17] -0.002 | [18] 0.013 | [19] 0.005 | [20] -0.016

LAGE3 (UniProt Q14657)
active: [2] 0.342
inactive: [1] 0.028 | [3] 0.074 | [4] -0.008 | [5] -0.092 | [6] -0.018 | [7] 0.091 | [8] 0 | [9] 0.022 | [10] 0.06 | [11] 0.047 | [12] 0.002 | [13] 0.012 | [14] 0 | [15] -0.004 | [16] -0.147 | [17] -0.098 | [18] -0.002 | [19] 0.031 | [20] 0.046

KYAT1 (UniProt Q16773)
inactive: [1] -0.009 | [2] -0.03 | [3] 0.012 | [4] 0.045 | [5] 0.04 | [6] 0.01 | [7] 0.006 | [8] 0.028 | [9] -0.007 | [10] 0.016 | [11] -0.003 | [12] 0.007 | [13] -0.006 | [14] -0.017 | [15] 0.005 | [16] -0.037 | [17] -0.024 | [18] 0.01 | [19] -0.01 | [20] -0.025

KIF15 (UniProt Q9NS87)
inactive: [1] 0.004 | [2] 0.025 | [3] -0.01 | [4] 0.011 | [5] -0.019 | [6] 0.048 | [7] -0.054 | [8] -0.04 | [9] -0.019 | [10] -0.012 | [11] -0.017 | [12] 0.006 | [13] 0.008 | [14] -0.022 | [15] 0.01 | [16] 0.022 | [17] -0.027 | [18] 0.02 | [19] 0.036 | [20] -0.015

KLHDC3 (UniProt Q9BQ90)
inactive: [1] -0.026 | [2] -0.124 | [3] -0.021 | [4] 0.014 | [5] -0.021 | [6] -0.034 | [7] 0.176 | [8] -0.085 | [9] -0.046 | [10] 0.019 | [11] 0.113 | [12] 0.021 | [13] 0.06 | [14] -0.006 | [15] 0.012 | [16] -0.106 | [17] 0.028 | [18] 0.021 | [19] 0.008 | [20] -0.063

KMT2C isoform 3 (UniProt Q8NEZ4)
inactive: [1] 0.031 | [2] -0.029 | [3] -0.029 | [4] 0.016 | [5] -0.053 | [6] 0.067 | [7] -0.009 | [8] -0.018 | [9] -0.01 | [10] 0.005 | [11] 0.027 | [12] 0.013 | [13] 0 | [14] -0.048 | [15] 0.001 | [16] -0.027 | [17] -0.027 | [18] 0.044 | [19] 0.014 | [20] -0.021

KIF5B (UniProt P33176)
inactive: [1] 0.006 | [2] 0.007 | [3] 0.013 | [4] 0 | [5] -0.026 | [6] 0.019 | [7] -0.02 | [8] 0.005 | [9] 0.004 | [10] -0.013 | [11] -0.013 | [12] 0.004 | [13] -0.002 | [14] 0 | [15] -0.003 | [16] -0.022 | [17] -0.005 | [18] 0 | [19] -0.001 | [20] -0.004

KSR1 (UniProt Q8IVT5)
inactive: [1] 0.011 | [2] -0.099 | [3] -0.038 | [4] 0.058 | [5] 0.022 | [6] 0.059 | [7] -0.078 | [8] 0.015 | [9] -0.037 | [10] -0.008 | [11] 0.021 | [12] -0.103 | [13] 0.054 | [14] 0.021 | [15] -0.025 | [16] -0.011 | [17] -0.032 | [18] 0.007 | [19] 0.019 | [20] -0.074

KIDINS220 isoform 4 (UniProt Q9ULH0)
inactive: [1] -0.019 | [2] 0.031 | [3] -0.013 | [4] 0.02 | [5] -0.01 | [6] -0.033 | [7] -0.055 | [8] -0.035 | [9] 0.061 | [10] 0.018 | [11] 0.023 | [12] 0.069 | [13] 0.04 | [14] -0.044 | [15] -0.008 | [16] -0.019 | [17] -0.01 | [18] 0.022 | [19] 0.034 | [20] -0.008

KHSRP (UniProt Q92945)
inactive: [1] -0.044 | [2] -0.011 | [3] 0.003 | [4] -0.008 | [5] 0.006 | [6] 0.004 | [7] 0.026 | [8] 0.011 | [9] -0.011 | [10] -0.002 | [11] 0.017 | [12] 0 | [13] 0.003 | [14] -0.005 | [15] -0.016 | [16] -0.004 | [17] 0.036 | [18] -0.19 | [19] 0.009 | [20] -0.016

LAMB1 (UniProt P07942)
inactive: [1] -0.036 | [2] 0.069 | [3] 0.031 | [4] -0.054 | [5] -0.029 | [6] -0.001 | [7] -0.022 | [8] 0.036 | [9] 0.03 | [10] -0.021 | [11] 0.043 | [12] 0.019 | [13] 0.059 | [14] 0.01 | [15] 0.004 | [16] 0 | [17] -0.008 | [18] -0.016 | [19] 0.047 | [20] 0

L2HGDH (UniProt Q9H9P8)
inactive: [1] -0.022 | [2] 0.02 | [3] -0.01 | [4] -0.032 | [5] 0.027 | [6] -0.037 | [7] 0.076 | [8] -0.02 | [9] -0.03 | [10] 0.018 | [11] 0.006 | [12] 0.041 | [13] 0.025 | [14] 0.016 | [15] -0.036 | [16] 0.041 | [17] 0.03 | [18] -0.017 | [19] -0.014 | [20] 0.027

Reference: the supplement of paper PMC10849652
